Consider 40 molecules from the supplement of paper PMC7024190.

Where a name gives a salt, the structure may show the parent alone. Some of the results follow. Repeats in this data set agree poorly, so a single value says little.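 Human embryonic kidney cells were transiently transfected with a plasmid bearing a Renilla luciferase gene under the HSV-TK promoter. This first-round screen tests roughly ten thousand compounds for ones that increase reporter output.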

The test system of the assay is HEK 293FT. Nature of the assay: log relative Renilla luciferase luminescence (reporter expression vs reference, reference not stated) (log (base not stated)); higher = higher recombinant reporter expression. The note with it: 10 µM; time after transfection 48 h.
Take `COc1ccccc1OCC(O)CN1CCN(CC(=O)Nc2c(C)cccc2C)CC1` (stereo not given) [Ranolazine dihydrochloride]: the log was -0.185.
Turning to `C/C=C1\[C@H]2C=C(C)C[C@]1(N)c1ccc(=O)[nH]c1C2`, the log is -0.105.
As for `CN1CCC(=C2c3ccccc3C=Cc3ccccc32)CC1`, the figure is -0.76; as for `Nc1nc(N)nc(-c2cc(Cl)ccc2Cl)n1`, -0.223.
On to `CN1CCCCC1CCN1c2ccccc2Sc2ccc([S+](C)[O-])cc21` (stereo not given) [Mesoridazine], for which the log worked out at 0.208.
As for `O=C(O)CCNC(=O)c1ccc(/N=N/c2ccc(O)c(C(=O)O)c2)cc1`, the figure is 0.0907; as for `CC(C)Oc1ccc2c(=O)c(-c3ccccc3)coc2c1`, -0.196.
Consider `COc1cccc2c1C(=O)c1c(O)c3c(c(O)c1C2=O)C[C@@](O)(C(=O)CO)C[C@@H]3O[C@H]1C[C@H](N)[C@@H](O)[C@H](C)O1`, for which the log was -1.27.
Take `CN(C)CCOc1ccc(/C(=C(/CCCl)c2ccccc2)c2ccccc2)cc1`: the log amounted to 0.083.
As to `Cn1c(NCCN(CCO)CCCc2ccc([N+](=O)[O-])cc2)cc(=O)n(C)c1=O`, the log is -0.0854.
Turning to `Cc1c2oc3c(C)ccc(C(=O)N[C@@H]4C(=O)N[C@H](C(C)C)C(=O)N5CCC[C@H]5C(=O)N(C)CC(=O)N(C)[C@@H](C(C)C)C(=O)O[C@@H]4C)c3nc-2c(C(=O)N[C@@H]2C(=O)N[C@H](C(C)C)C(=O)N3CCC[C@H]3C(=O)N(C)CC(=O)N(C)[C@@H](C(C)C)C(=O)O[C@@H]2C)c(N)c1=O`, the log was -1.2.
As for `COc1cc(CNC(=O)CCCC/C=C/C(C)C)ccc1O` [Capsaicin], the figure is 0.171; as for `Cc1occc(=O)c1O`, 0.116; as for `Cc1ncc([N+](=O)[O-])n1CC(O)CCl` (stereo not given), -0.313.
Regarding `NC(=O)N1c2ccccc2CC(=O)c2ccccc21` [Trileptal], the log was 0.101.
As for `CN(C)CC[C@@H](c1ccc(Br)cc1)c1ccccn1`, the figure is -0.437; as for `CC(=O)OCC(=O)NCCCOc1cccc(CN2CCCCC2)c1`, -0.216.
For `O=c1n(CCCN2CCN(c3cccc(Cl)c3)CC2)nc2ccccn12`, the log was 0.106.
As for `CCc1oc2ccccc2c1C(=O)c1cc(Br)c(O)c(Br)c1`, the log is -0.0265.
For `O=C(O)Cc1ccccc1Nc1c(Cl)cccc1Cl`, the log is 0.245.
As for `CCCCc1oc2ccccc2c1C(=O)c1cc(I)c(OCCN(CC)CC)c(I)c1`, the figure is 0.0675; as for `O=C(O[C@H]1[C@H](Oc2ccccc2COC(=O)C2(O)C=CCCC2=O)O[C@H](CO)[C@@H](O)[C@@H]1O)c1ccccc1` (stereo not given in full), 0.239; as for `Cc1nc2n(c(=O)c1CCN1CCC(c3noc4cc(F)ccc34)CC1)CCCC2`, -0.0927.
Turning to `CC(C)(O)c1ccccc1CC[C@@H](SCC1(CC(=O)O)CC1)c1cccc(/C=C/c2ccc3ccc(Cl)cc3n2)c1`, the log is -0.353.
As for `O=C(NCCO[N+](=O)[O-])c1cccnc1`, the figure is -0.381; as for `Nc1ccn([C@@H]2CS[C@H](CO)O2)c(=O)n1`, -0.143; as for `Cc1c(OCC(F)(F)F)ccnc1C[S+]([O-])c1nc2ccccc2[nH]1` (stereo not given), -0.0669.
As for `COCC1=C(C(=O)OC(C)OC(=O)OC(C)C)N2C(=O)[C@@H](NC(=O)/C(=N\OC)c3csc(N)n3)[C@H]2SC1` (stereo not given in full), the figure is 0.0785; as for `CCOC(=O)c1ncn2c1CN(C)C(=O)c1cc(F)ccc1-2`, -0.18; as for `CNCC[C@H](Oc1cccc2ccccc12)c1cccs1` [Duloxetine], 0.196.
As for `CN(CCOc1ccc(NS(C)(=O)=O)cc1)CCc1ccc(NS(C)(=O)=O)cc1`, the figure is -0.108; as for `CO[C@H]1O[C@@H]2O[C@@]3(C)CC[C@H]4[C@H](C)CC[C@@H]([C@H]1C)[C@@]24OO3`, -0.069.
For `CC(C)[C@H](N)C(=O)OCCOCn1cnc2c(=O)nc(N)[nH]c21`, the log was 0.0634.
As to `CN1CCN(c2c(F)cc3c(=O)c(C(=O)O)cn4c3c2SCC4)CC1`, the log is -0.06.
As for `CCc1nn(CCCN2CCN(c3cccc(Cl)c3)CC2)c(=O)n1CCOc1ccccc1` [Nefazodone], the figure is -0.394; as for `CC(=O)O[C@H]1C[C@@H]2CC[C@@H]3[C@H](CC[C@@]4(C)[C@H]3C[C@H]([N+]3(C)CCCCC3)[C@@H]4OC(C)=O)[C@@]2(C)C[C@@H]1N1CCCCC1`, -0.111.
As for `Cc1c(O)c(=O)ccn1C`, the figure is 0.156.
As for `CC(=O)[C@H]1CC[C@H]2[C@@H]3CCC4=CC(=O)CC[C@]4(C)[C@H]3CC[C@]12C`, the log came to 0.159.
On to `CCC(C)(C)N=C(NC#N)Nc1cccnc1`, for which the log is -0.0614.
Consider `C[C@H]1[C@H](OC(=O)CCC(=O)O)O[C@@H]2O[C@@]3(C)CC[C@H]4[C@H](C)CC[C@@H]1[C@@]24OO3`, for which the log is -1.54.
